Results reported in PubChem BioAssay AID1487 (National Center for Advancing Translational Sciences (NCATS), 2009).
Some of the results follow. The main result of the screen is listed elsewhere. These columns were measured beside it and carry no call. The list favours compounds with an active or inconclusive main result. The note in brackets gives the kind of curve behind each potency; many fits are weak.

Experiment: qHTS Assay for Modulators of Lamin A Splicing
Conditions: HeLa LMNA splicing GFP/RFP minigene ratio, 48 h
In short: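 Read-out is the ratio of GFP to DsRed2 object intensity, acquired by 488 nm laser-scanning cytometry on HeLa lamin A-EGFP minigene reporter cells. Compound incubation 48 hrs at 37 °C in Opti-MEM with 2% FBS; DMSO 0.5% final.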

[1] = measured here: RFP viability control channel
[2] = measured here: GFP splicing reporter channel

Cc1cs/c(=N\N=C\c2ccc(O)cc2)n1Cc1ccco1
AC50 [1]: 17.8 µM [rising, partial curve]

CCOC(=O)C(C)Sc1nc2c(c(-c3cccs3)c1C#N)CCC2 (stereo not given)
AC50 [2]: 14.1 µM [rising, partial curve]
AC50 [1]: 25.1 µM [rising, single point]

O=C(c1ccc(Br)cc1)N1CCC(c2nc3ccccc3s2)CC1
AC50 [2]: 20 µM [falling, single point]
AC50 [1]: 31.6 µM [falling, single point]

CC(=O)c1cc(Cc2csc(C(C)=O)c2)cs1
AC50 [2]: 12.6 µM [rising, single point]

COC1=C(OC)C(=O)C(C/C=C(\C)CC/C=C(\C)CC/C=C(\C)CC/C=C(\C)CC/C=C(\C)CC/C=C(\C)CC/C=C(\C)CC/C=C(\C)CC/C=C(\C)CCC=C(C)C)=C(C)C1=O
AC50 [2]: 1.58 µM [rising, full curve]
AC50 [1]: 0.0112 µM [rising, full curve, poor fit]

CCn1nnc(NC(=O)c2ccc(-c3ccccc3[N+](=O)[O-])o2)n1
AC50 [2]: 35.5 µM [rising, single point]

C=CCn1c(COc2ccc(OC)cc2)nnc1SCn1nnc2ccccc2c1=O
AC50 [2]: 20 µM [rising, partial curve]
AC50 [1]: 31.6 µM [rising, single point]

CCOC(=O)c1ccccc1NC(=O)c1cn(CC)c2nc(C)ccc2c1=O
AC50 [1]: 3.98 µM [rising, full curve, poor fit]

CCn1c(SCC(=O)Nc2nc3ccc(OC)cc3s2)nnc1-c1ccoc1C
AC50 [1]: 14.1 µM [rising, single point]

CC(C)(C)NC[C@@H](O)COc1ccccc1C1CCCC1
AC50 [2]: 14.1 µM [falling, partial curve, poor fit]

CCc1cccc(Nc2c3c(nc4ncnn24)CCC3)c1
AC50 [2]: 35.5 µM [rising, single point]

CC(=O)N(C)c1ccc(NC(=O)/C=C/c2ccccc2Cl)cc1
AC50 [2]: 1 µM [rising, full curve]
AC50 [1]: 4.47 µM [rising, partial curve]

CN(C)c1ccc(/C=N/NC(=O)CN(c2cccc(Cl)c2)S(C)(=O)=O)cc1Br
AC50 [1]: 22.4 µM [rising, single point]

CN(C)Cc1nc2ccccc2c(=O)n1Cc1nc(-c2cc3ccccc3o2)cs1
AC50 [1]: 11.2 µM [rising, single point]

CC(C)CNS(=O)(=O)c1ccc(CCC(=O)N2CCN(c3ccc(F)cc3)CC2)cc1
AC50 [2]: 28.2 µM [falling, partial curve]

Fc1ccc2[nH]c3c(N4CCN(C5CCCCC5)CC4)ncnc3c2c1
AC50 [1]: 10 µM [rising, partial curve, poor fit]

Cc1nnc(SC(C)C(=O)NCC2CCCO2)n1-c1ccccc1 (stereo not given)
AC50 [1]: 5.62 µM [rising, single point]

CCCCNC(=O)c1cc(-c2ccc(F)cc2)on1
AC50 [2]: 35.5 µM [falling, single point]
AC50 [1]: 35.5 µM [falling, single point]

COc1ccc(N2CCN(C(=O)C3CCC(Cn4c(=S)[nH]c5ccccc5c4=O)CC3)CC2)cc1 (stereo not given)
AC50 [2]: 17.8 µM [rising, single point]
AC50 [1]: 12.6 µM [rising, partial curve]

Cc1cc(C(=O)Nc2cccc(C(F)(F)F)c2)c2c(C)nn(-c3cccc(F)c3)c2n1
AC50 [1]: 17.8 µM [rising, partial curve, poor fit]

CSc1nc(C)cc(OCC(=O)N/N=C/c2ccccc2O)n1
AC50 [1]: 7.08 µM [rising, partial curve]

CC(=O)Nc1ccc(NC(=O)CC(C)n2ccc(C)n2)cc1 (stereo not given)
AC50 [2]: 0.1 µM [falling, full curve]
AC50 [1]: 0.112 µM [falling, full curve]

O=C1c2ccccc2C(=O)N1CCCCSc1nnnn1-c1ccccc1
AC50 [2]: 20 µM [rising, single point]
AC50 [1]: 31.6 µM [rising, single point]

COc1ccc(Cn2c(CCC(=O)O)nc3cccnc32)cc1
AC50 [1]: 0.0316 µM [falling, full curve, poor fit]

CCOc1ccc(S(=O)(=O)N/N=C(\C)c2ccc(Cl)c(Cl)c2Cl)cc1
AC50 [2]: 35.5 µM [falling, single point]
AC50 [1]: 35.5 µM [falling, single point]

Cc1nnc(Sc2cc(NCCO)c([N+](=O)[O-])c3nonc23)s1
AC50 [2]: 25.1 µM [falling, single point]
AC50 [1]: 35.5 µM [falling, single point]

Cc1nn(Cc2ccc(C(=O)N3N=C(C(F)F)CC3(O)C(F)F)o2)c(C)c1[N+](=O)[O-] (stereo not given)
AC50 [1]: 8.91 µM [rising, partial curve]

CCc1ccc(NC(=O)c2cc(S(=O)(=O)N3CCCCC3)c[nH]2)cc1
AC50 [1]: 0.00447 µM [falling, full curve, poor fit]

CCCCCCOc1ccc(C(CC(N)=O)C(=O)O)cc1 (stereo not given)
AC50 [1]: 1.26 µM [falling, single point]

O=c1oc2ccccc2c(Nc2ccccc2O)c1[N+](=O)[O-]
AC50 [2]: 2.51 µM [falling, partial curve, poor fit]
AC50 [1]: 0.126 µM [falling, full curve, poor fit]

Cc1ccc(C(C2C(=O)CC(C)(C)CC2=O)C2C(=O)CC(C)(C)CC2=O)s1
AC50 [1]: 0.355 µM [falling, single point]

CCOc1ccc(C(=O)NC(=S)Nc2ccccn2)cc1[N+](=O)[O-]
AC50 [1]: 22.4 µM [falling, single point]

COc1cccc(C(=O)Nc2ccc3nc(N4CCN(c5ncccn5)CC4)cc(C)c3c2)c1OC
AC50 [2]: 35.5 µM [falling, single point]
AC50 [1]: 31.6 µM [falling, single point]

O=c1c(Sc2ccccc2)c(C(F)(F)F)[nH]n1-c1ccccc1
AC50 [1]: 15.8 µM [rising, single point]

Cc1nc(S(=O)(=O)N(C)c2ccccc2)c(C#N)c(C)c1Cl
AC50 [2]: 15.8 µM [falling, single point]
AC50 [1]: 25.1 µM [falling, single point]

Cc1ccc(Nc2cc(C)nc(N3CCOCC3)n2)c(C)c1
AC50 [2]: 0.316 µM [rising, full curve, poor fit]
AC50 [1]: 0.01 µM [rising, full curve, poor fit]

C[C@]12CC[C@@H]3c4ccc(O)cc4CC[C@H]3[C@@H]1CCC2OC(=O)CCC1CCCC1 (stereo not given in full)
AC50 [2]: 12.6 µM [rising, partial curve, poor fit]
AC50 [1]: 0.0355 µM [falling, full curve, poor fit]

COc1ccc(C2C(C(=O)N3CCN(C)CC3)c3cc(OC)c(OC)cc3C(=O)N2C)cc1 (stereo not given)
AC50 [2]: 0.00316 µM [falling, full curve]
AC50 [1]: 0.00316 µM [falling, full curve, poor fit]

CCCCCCCC/C=C\CCCCCCCC(=O)O
AC50 [2]: 3.98 µM [rising, partial curve, poor fit]

Cc1ccc(NC(=O)c2cc3c(s2)CCC3)cc1S(=O)(=O)N1CCOCC1
AC50 [1]: 35.5 µM [rising, single point]

COc1ccc(C)cc1NS(=O)(=O)c1ccc(-c2cnc(C3CC3)o2)cc1
AC50 [1]: 0.141 µM [rising, full curve]

COc1ccc2c(c1)cc(C(O)c1ccccn1)n2S(=O)(=O)c1ccccc1 (stereo not given)
AC50 [2]: 35.5 µM [rising, single point]

Cc1ccc(C)c(Nc2ncnc3c2cnn3-c2ccc(F)cc2)c1
AC50 [2]: 0.891 µM [falling, partial curve, poor fit]
AC50 [1]: 0.0126 µM [falling, full curve, poor fit]

CC(C)(C)c1ccc(NC(=O)COC(=O)c2ccc(NS(=O)(=O)c3ccc(F)c(F)c3)cc2)cc1
AC50 [1]: 35.5 µM [rising, single point]

CCc1cc(=O)oc2cc3occ(-c4ccc(OC)c(F)c4)c3cc12
AC50 [2]: 11.2 µM [falling, partial curve]
AC50 [1]: 35.5 µM [falling, partial curve]

CC(OCC(O)CN(C)Cc1nc2ccccc2c(=O)[nH]1)c1ccc(Cl)cc1 (stereo not given)
AC50 [2]: 3.55 µM [falling, partial curve, poor fit]

CNC(=S)N/N=C(\C)c1ccc(C)c(C)c1
AC50 [2]: 35.5 µM [falling, single point]

CC[n+]1c(C)sc2cc(C)ccc21
AC50 [1]: 31.6 µM [rising, single point]

Cc1nc([N+](=O)[O-])c(Sc2nc3ccccc3n2C)n1Cc1ccccc1
AC50 [1]: 10 µM [rising, partial curve]

CN1/C(=C\C(=O)COC(=O)CNC(=O)c2ccc3ccccc3c2)C(C)(C)c2ccccc21
AC50 [2]: 10 µM [rising, partial curve, poor fit]
AC50 [1]: 8.91 µM [rising, partial curve, poor fit]

CC(=O)/C(N)=N/Nc1cccc(Cl)c1
AC50 [1]: 5.62 µM [rising, single point]

COc1cc(NC(=O)Cn2nnc(-c3ccncc3)n2)cc(OC)c1
AC50 [1]: 7.08 µM [rising, partial curve, poor fit]

CCc1ccc(OCC(=O)Nc2ccc(N3CCN(S(C)(=O)=O)CC3)cc2)cc1
AC50 [2]: 0.501 µM [rising, full curve, poor fit]

Cc1ccc2nc(NC(=O)CCn3cccc3)sc2c1
AC50 [2]: 0.0794 µM [rising, full curve, poor fit]
AC50 [1]: 0.00447 µM [rising, full curve, poor fit]
